This is an account of results in PubChem BioAssay AID2685 (National Center for Advancing Translational Sciences (NCATS), 2010).

The structures appear in SMILES notation. This is one part of the list. Further columns of the screen follow, without active or inactive calls. The list favours compounds with an active or inconclusive main result. Potencies come from curve fits of mixed quality, noted in brackets.

The experiment in a line: qHTS Assay for Lipid Storage Modulators in Drosophila S3 Cells.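 On cell number change: cells counted by Cell Tracker Red CMTPX staining in the red channel.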 The following applies: BODIPY lipid droplet fluorescence, 18-24 h; for cell number change: measured here: cell count max response, cells fed with added oleic acid. The method, boiled down:
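Drosophila S3 cells got compounds at several concentrations plus oleic acid (400 uM solution). Laser-scanning cytometry with 488 nm excitation read lipid droplets at 500-530 nm and cells at 575-640 nm. Percent activity was relative to 20 uM Triacsin C.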

Where [1] appears, read: measured here: cell number channel AC50, cells fed with added oleic acid.
Where [2] appears, read: measured here: lipid fluorescence (Fed channel) AC50, cells fed with added oleic acid.

In general, AC50 refers to the concentration giving half of the maximal activity seen. High values mean activity only at high concentration, low ones activity at low concentration. Regarding `CN(C(=O)c1cc2c(s1)-c1ccccc1S(=O)(=O)C2)c1ccccc1F`, the AC50 is 517 nM [rising, full curve, poor fit] under setting [1] and 8200 nM [rising, partial curve] under setting [2].
In the case of `O=C1NC(NS(=O)(=O)c2ccc(Cl)cc2)(C(F)(F)F)C(=O)N1Cc1cccnc1` (stereo unspecified), the cell number change was 9.26%. Moreover, under setting [1], the AC50 was 146 nM [rising, full curve, poor fit].
For `CN(C1=NC(=O)C(CC(=O)O)S1)c1ccc(O)cc1` (stereo unspecified), the cell number change was -2.23%. In addition, the AC50 under setting [1] was 517 nM [rising, single point]. For the same compound, the AC50 under setting [2] was 103 nM [rising, full curve, poor fit].
Turning to `NS(=O)(=O)c1ccc(NC(=O)Nc2cccc3ccccc23)cc1`, the cell number change is 23.8%. Also, under setting [1], the concentration at half-maximal activity (AC50) was 2060 nM [rising, partial curve, poor fit]. The half-maximal activity concentration (AC50) under setting [2] was 6510 nM [rising, partial curve, poor fit].
Turning to `COc1cc2c(c(O)c1OC)C(=O)C(OC)CCC2` (stereo unspecified), the cell number change is 9.76%.
Take `Cc1nc(CS(=O)c2ccc(Cl)cc2)cc(NCc2ccc(Cl)cc2Cl)n1` (stereo unspecified): the cell number change was -62.9%. Also, the AC50 under setting [1] was 3260 nM [rising, partial curve].
For `COc1ccccc1Nc1nc2c(C)cccc2cc1C#N`, the cell number change stood at 16.7%. The AC50 under setting [2] was 20600 nM [rising, single point].
As to `CSCCC(NC(=O)c1ccc([N+](=O)[O-])cc1Cl)C(=O)OCC(=O)NC(=O)CN1CCCC1=O` (stereo unspecified), the cell number change is -14.7%. In addition, the half-maximal activity concentration (AC50) under setting [2] is 130 nM [falling, full curve, poor fit].
Take `N#Cc1nc(Cc2ccccc2)oc1NCCc1ccccc1`: the cell number change was -25.9%. The AC50 under setting [2] was 7310 nM [rising, partial curve].
Consider `Cc1ccc(-c2nn(-c3ccccc3)cc2/C=N/n2c(-c3cccs3)n[nH]c2=S)cc1`, for which the cell number change was -7.62%.
Take `CCC(C)[C@H](NC(=O)N1CCn2c1nc1ccccc12)C(=O)NCC1CCCO1` (stereo partly specified): the cell number change was -37.1%. Moreover, the concentration at half-maximal activity (AC50) under setting [1] is 32600 nM [falling, single point].
As for `Cc1oncc1C(=O)Nc1ccc(C(F)(F)F)cc1`, the cell number change stood at 26.1%. For the same compound, under setting [2], the half-maximal activity concentration (AC50) is 20600 nM [rising, single point].
With `COc1ccc(NC(=O)c2ccc(NC(=O)c3cccs3)cc2)cc1`, the AC50 under setting [2] was 259 nM [rising, full curve, poor fit].
For the compound `CCOC(=O)NCCc1ccc(OC)cc1`, the cell number change was -3.52%.
Take `O=C(Oc1c(-c2ccccc2Cl)oc2ccccc2c1=O)c1ccc(Cl)cc1`: the cell number change was 20.6%. Under setting [2], the AC50 was 23100 nM [rising, single point].
Regarding `CCCOC(=O)c1cccc(NC(=O)c2cccnc2)c1`, the cell number change was 5.42%. The concentration at half-maximal activity (AC50) under setting [1] is 32.6 nM [rising, full curve, poor fit]. Under setting [2], the concentration at half-maximal activity (AC50) is 4.61 nM [rising, full curve, poor fit].
Consider `O=C(COC(=O)c1ccc(O)cc1)Nc1cc(C(F)(F)F)ccc1N1CCOCC1`, for which the cell number change is -5.5%. Further, under setting [2], the AC50 was 5.17 nM [falling, full curve, poor fit].
For the compound `COc1ccc(-c2nnn(CC(=O)OC3CCCCC3)n2)cc1OC`, the cell number change worked out at 2.37%. For the same compound, the AC50 under setting [2] is 4.61 nM [falling, full curve, poor fit].
`Cc1cc(NC(=O)c2ccc(F)cc2)ccc1NC(=O)c1ccco1`: the cell number change is -8.55%.
Take `Cc1nn(Cc2ccc(Cl)cc2Cl)c(Cl)c1/C=N/NC(=O)CNc1cccc(C(F)(F)F)c1`: the cell number change is -41.9%. Moreover, the AC50 under setting [1] is 23100 nM [falling, partial curve]. Besides, the AC50 under setting [2] is 14600 nM [falling, partial curve].
Turning to `CCCCN(C(=O)c1ccc2c(c1)OCO2)c1c(N)n(CCCC)c(=O)[nH]c1=O`, the cell number change is -49.4%. Moreover, the AC50 under setting [1] was 5800 nM [falling, full curve].
As for `COc1ccc(C(Cl)=C(c2ccc(OC)cc2)c2ccc(OC)cc2)cc1`, the cell number change was -15.9%. Further, under setting [2], the half-maximal activity concentration (AC50) was 18400 nM [rising, single point].
In the case of `CCc1ccccc1NC(=O)Cn1nc(C)n2cccc2c1=O`, the AC50 under setting [2] was 6510 nM [falling, single point].
As for `Cc1oc(-c2cccc(Cl)c2)nc1CSCC(=O)O`, the cell number change is -0.922%.
On the same count and under the same terms, the result for `Cc1ccc2cc(CN(Cc3cccs3)Cc3nnnn3CC3CCCO3)c(=O)[nH]c2c1` (stereo unspecified) reads 4.96%.
As to `Cc1ccc(C2=[N+]([O-])C(C)(C)N(O)C2(C)C)cc1`, the cell number change was found to be 140%. Besides, the concentration at half-maximal activity (AC50) under setting [1] is 20600 nM [rising, partial curve, poor fit]. In addition, under setting [2], the AC50 is 29100 nM [rising, partial curve].
Regarding `COCCOC(=O)c1[nH]c2c(c1C)C(=O)CC(c1cc(OC)c(OC)c(OC)c1)C2` (stereo unspecified), the cell number change was -27.7%.
For the compound `O=C(Nc1nc(-c2ccc(Cl)s2)cs1)c1ccco1`, the cell number change was determined as 36.9%.
Turning to `Cc1cccc(Cn2c(NCC(C)O)nc3c2c(=O)n(C)c(=O)n3C)c1` (stereo unspecified), under setting [2], the AC50 was 146 nM [falling, full curve].
For `c1ccc(C2CC(c3ccccc3)n3ncnc3N2)cc1` (stereo unspecified), the cell number change is -18.8%. Moreover, under setting [2], the AC50 is 6510 nM [rising, single point].
Take `CC1(C)CC(=O)C(C=NCCN2CCN(CC(=O)Nc3ccc(F)cc3)CC2)=C(O)C1`: the cell number change turned out to be 6.55%.
As for `CC(C)(C)C(=O)OCCNc1nc(-c2ccccc2)nc2ccccc12`, the cell number change came to 21.7%. Moreover, under setting [2], the half-maximal activity concentration (AC50) is 1640 nM [rising, partial curve].
Regarding `COc1ccc2c(-c3ccccc3)cc(SCC(=O)N(C)C3CCS(=O)(=O)C3)nc2c1` (stereo unspecified), under setting [2], the AC50 is 65.1 nM [rising, full curve, poor fit].
As for `CC(C)C[C@H](NC(=O)NCCc1ccc(Cl)cc1)C(=O)O`, the cell number change amounted to 4.65%.
The same measure, in the same setting: the value for `CCN(C(=O)/C=C/c1ccc(OC)cc1)C1CCCCC1` was 15.9%.
Take `Fc1cccc2sc(Nc3nc4ccccc4s3)nc12`: the cell number change was -44.1%. The AC50 under setting [1] is 231 nM [rising, full curve, poor fit].
With `COc1ccc(CCNC(=O)CNC(=O)Cn2ccc3ccccc3c2=O)cc1OC`, the cell number change is -32.2%. For the same compound, the AC50 under setting [1] is 5.8 nM [falling, full curve, poor fit]. Further, the AC50 under setting [2] is 23100 nM [falling, partial curve, poor fit].
Regarding `COc1ccccc1NS(=O)(=O)c1cc(NC(=O)C2CC2)ccc1N1CCOCC1`, the cell number change is -3.87%.
Take `COc1ccc(C(=O)CCN2CCC(C)CC2)cc1`: the cell number change is -48.9%. Further, the AC50 under setting [1] was 32.6 nM [falling, full curve, poor fit]. The AC50 under setting [2] is 6510 nM [falling, partial curve].
On to `CCOC(=O)c1cccc(NC(=O)CCc2nc(-c3ccc(C)cc3)no2)c1`, for which the cell number change was -35.7%. In addition, the AC50 under setting [1] was 14600 nM [falling, single point]. In addition, under setting [2], the AC50 was 29100 nM [falling, single point].
In the case of `O=C(NCc1cccnc1)C1CC(c2ccc(Cl)c(Cl)c2)=NO1` (stereo unspecified), the cell number change was 39.5%.
Turning to `COc1cc(C(C(=O)NC2CCCC2)N(C(=O)Cc2cccs2)C2CC2)cc(OC)c1OC` (stereo unspecified), the AC50 under setting [2] is 116 nM [falling, full curve, poor fit].
Same read-out and setting: the value for `COc1ccc(C(=O)Nc2ccnn2C2CCN(Cc3cnn(C)c3)CC2)cc1` was 517 nM [rising, partial curve, poor fit].
For `N#C/C(=C\c1cccnc1)C(=O)Nc1ccc(SC(F)F)cc1`, the cell number change is 23.2%. Under setting [2], the concentration at half-maximal activity (AC50) is 9200 nM [rising, partial curve].
Regarding `COc1ccc(NC(=O)C(=S)NC2CCCCC2)cc1`, the cell number change is 91.7%. Besides, the AC50 under setting [1] was 16400 nM [rising, single point]. For the same compound, the AC50 under setting [2] was 411 nM [rising, single point].
With `O=C(COc1ccccc1Br)N1CCN(C(=O)c2cccs2)CC1`, the cell number change came to 16.3%. In addition, the AC50 under setting [1] is 1460 nM [falling, partial curve].
Take `C/C=C(/C)C(=O)Nc1cccc(C2=NOC3(C2)C[C@H](C(N)=O)N(C(=O)Cc2ccc([N+](=O)[O-])cc2)C3)c1` (stereo partly specified): the cell number change was found to be 15.5%. The half-maximal activity concentration (AC50) under setting [1] was 5170 nM [falling, single point]. Further, the half-maximal activity concentration (AC50) under setting [2] is 2910 nM [falling, single point].
Turning to `CCc1ccc(OCC(=O)Nc2ncc3c(n2)CC(C)(C)CC3=O)cc1`, the cell number change was determined as 15.3%. The concentration at half-maximal activity (AC50) under setting [2] is 2060 nM [rising, partial curve].
As for `c1ccc(Cc2ccc(OCCN3CCOCC3)cc2)cc1`, the cell number change was -9.52%.
Turning to `COc1cccc(CN(C)Cc2nc(Cc3ccccc3Cl)no2)c1`, the cell number change stood at 15.4%. Further, under setting [2], the AC50 is 1030 nM [rising, partial curve].
As for `Cc1cccc(NC(=O)Cn2nc(-c3cccs3)ccc2=O)c1C`, the cell number change was 26.9%. For the same compound, the AC50 under setting [1] was 517 nM [rising, full curve, poor fit]. Besides, the AC50 under setting [2] is 29100 nM [falling, single point].
As to `O=C(c1cnn2c(C(F)(F)F)cc(-c3ccco3)nc12)N1CCc2ccccc2C1`, the concentration at half-maximal activity (AC50) under setting [1] was 920 nM [rising, partial curve] and the AC50 under setting [2] was 1030 nM [rising, partial curve].
In the case of `CCOC(=O)C1=C(C)Nc2nc3ccccc3n2C1c1ccc(O)cc1` (stereo unspecified), the cell number change was 12.6%. The AC50 under setting [1] is 461 nM [rising, full curve, poor fit]. Under setting [2], the AC50 is 259 nM [rising, full curve, poor fit].
On to `O=C(Nc1nc(=O)n(C(=O)C2CC2)s1)c1ccccc1`, for which the cell number change came to 38.7%. Also, the AC50 under setting [1] was 23100 nM [rising, single point].
`C/C(=N/Nc1nc(C)c(C)s1)c1cccc([N+](=O)[O-])c1`: the cell number change is -20.4%. Besides, under setting [2], the AC50 was 14600 nM [falling, single point].
Turning to `CCOc1ccc(NC(=O)C2CCN(C(=O)NCc3ccccc3)CC2)cc1`, the cell number change is -10.1%. For the same compound, under setting [1], the half-maximal activity concentration (AC50) was 5.17 nM [falling, full curve, poor fit].
As to `CC(C)CC(=O)N1CCN(Cc2cccc(Cl)c2)CC1`, the cell number change was -17.3%. Under setting [2], the half-maximal activity concentration (AC50) is 580 nM [falling, single point].
On to `CCCCCCNC(=O)Nc1ccccc1`, for which the AC50 reads like this: under setting [1], 6510 nM [falling, single point]; under setting [2], 14600 nM [falling, partial curve, poor fit].
Take `Cc1ccc(C(C)(C)C)cc1S(=O)(=O)N1CC(=O)Nc2ccccc21`: the concentration at half-maximal activity (AC50) under setting [2] was 6510 nM [falling, single point].
Turning to `CC(C)(C)n1cnnc1Sc1ccc([N+](=O)[O-])cn1`, the cell number change was -29.9%. For the same compound, under setting [2], the AC50 was 651 nM [falling, full curve, poor fit].
